The experiment addresses V5-tagged BRPF1 (UniProt P55201). Kind of experiment: co-IP; Huh-7 cells cotransfected with V5-BRPF1 and Myc-ILF3, trichostatin A treated; anti-V5 or anti-Myc on Dynabeads Protein G; with and without 5 μM PFI-4; Western blot. For orientation: A western blot detects proteins with antibodies after separation by electrophoresis.

Protein sequences, listed by entry. Tags and fused reporters are not part of them.
UniProt P55201: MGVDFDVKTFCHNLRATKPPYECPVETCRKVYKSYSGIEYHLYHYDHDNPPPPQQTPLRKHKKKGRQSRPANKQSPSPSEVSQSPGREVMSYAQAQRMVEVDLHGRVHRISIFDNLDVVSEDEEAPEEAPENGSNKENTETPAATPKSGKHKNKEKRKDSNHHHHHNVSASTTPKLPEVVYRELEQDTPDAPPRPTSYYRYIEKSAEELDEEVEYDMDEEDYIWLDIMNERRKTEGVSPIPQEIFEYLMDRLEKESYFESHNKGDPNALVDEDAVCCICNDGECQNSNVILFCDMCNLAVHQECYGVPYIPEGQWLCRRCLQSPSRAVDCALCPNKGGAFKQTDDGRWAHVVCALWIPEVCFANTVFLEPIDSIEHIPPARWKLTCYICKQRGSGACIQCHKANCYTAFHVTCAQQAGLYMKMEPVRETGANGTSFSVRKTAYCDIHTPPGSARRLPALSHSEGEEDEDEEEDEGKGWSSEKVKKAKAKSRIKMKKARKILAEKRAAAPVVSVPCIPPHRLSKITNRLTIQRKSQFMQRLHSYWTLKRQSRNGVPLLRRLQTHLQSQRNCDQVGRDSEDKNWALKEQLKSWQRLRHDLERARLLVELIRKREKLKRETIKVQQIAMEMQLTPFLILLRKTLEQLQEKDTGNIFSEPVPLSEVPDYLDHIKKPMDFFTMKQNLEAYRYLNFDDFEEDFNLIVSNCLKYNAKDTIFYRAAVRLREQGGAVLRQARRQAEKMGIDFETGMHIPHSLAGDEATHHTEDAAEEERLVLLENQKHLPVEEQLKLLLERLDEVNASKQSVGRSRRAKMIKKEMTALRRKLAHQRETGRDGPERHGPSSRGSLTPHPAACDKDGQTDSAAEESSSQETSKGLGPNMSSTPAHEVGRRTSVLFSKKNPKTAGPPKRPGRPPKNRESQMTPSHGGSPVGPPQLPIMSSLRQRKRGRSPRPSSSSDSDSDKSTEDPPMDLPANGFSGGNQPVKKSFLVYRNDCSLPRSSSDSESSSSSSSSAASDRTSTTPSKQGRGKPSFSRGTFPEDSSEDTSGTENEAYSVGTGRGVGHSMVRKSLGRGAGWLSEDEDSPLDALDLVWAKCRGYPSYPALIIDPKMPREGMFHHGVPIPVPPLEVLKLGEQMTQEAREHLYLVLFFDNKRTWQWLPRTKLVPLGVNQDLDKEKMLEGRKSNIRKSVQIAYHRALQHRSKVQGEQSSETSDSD

Results are given in words; binding and its absence hold for the method and conditions named. In cells and extracts the contact can be indirect. Some entries that bind do so weakly or less than the wild type. Where a sequence is shown, tags or fusion partners need not be part of it.

B1: Myc-tagged ILF3 (protein, UniProt Q12906 1-894)
chain: MRPMRIFVNDDRHVMAKHSSVYPTQEELEAVQNMVSHTERALKAVSDWIDEQEKGSSEQAESDNMDVPPEDDSKEGAGEQKTEHMTRTLRGVMRVGLVAKGLLLKGDLDLELVLLCKEKPTTALLDKVADNLAIQLAAVTEDKYEILQSVDDAAIVIKNTKEPPLSLTIHLTSPVVREEMEKVLAGETLSVNDPPDVLDRQKCLAALASLRHAKWFQARANGLKSCVIVIRVLRDLCTRVPTWGPLRGWPLELLCEKSIGTANRPMGAGEALRRVLECLASGIVMPDGSGIYDPCEKEATDAIGHLDRQQREDITQSAQHALRLAAFGQLHKVLGMDPLPSKMPKKPKNENPVDYTVQIPPSTTYAITPMKRPMEEDGEEKSPSKKKKKIQKKEEKAEPPQAMNALMRLNQLKPGLQYKLVSQTGPVHAPIFTMSVEVDGNSFEASGPSKKTAKLHVAVKVLQDMGLPTGAEGRDSSKGEDSAEETEAKPAVVAPAPVVEAVSTPSAAFPSDATAEQGPILTKHGKNPVMELNEKRRGLKYELISETGGSHDKRFVMEVEVDGQKFQGAGSNKKVAKAYAALAALEKLFPDTPLALDANKKKRAPVPVRGGPKFAAKPHNPGFGMGGPMHNEVPPPPNLRGRGRGGSIRGRGRGRGFGGANHGGYMNAGAGYGSYGYGGNSATAGYSQFYSNGGHSGNASGGGGGGGGGSSGYGSYYQGDNYNSPVPPKHAGKKQPHGGQQKPSYGSGYQSHQGQQQSYNQSPYSNYGPPQGKQKGYNHGQGSYSYSNSYNSPGGGGGSDYNYESKFNYSGSGGRSGGNSYGSGGASYNPGSHGGYGGGSGGGSSYQGKQGGYSQSNYNSPGSGQNYSGPPSSYQSSQGGYGRNADHSMNYQYR
For B1, the binding entry is “binds”.

These data come from article PMC10789646.
